According to patent publication US8686187B2, “Ethoxy diphenyl ethane derivatives, preparation processes and uses thereof” (Shanghai Ecust Biomedicine Co., Ltd., priority 2008, dated 2014):
For at least one compound, name, drawing or mass did not settle the structure. Some results were stated once for a whole list of compounds, not compound by compound. Some compounds share one range, which may span the group rather than tell each member.

What was measured:
[1] = cited from earlier work
[2] = test system: multiple in vitro cultured tumor cells; assay: Antitumor activity evaluation, comparison over multiple in vitro cultured tumor cells; format: cell-based
[3] = test system: Human umbilical vein endothelial cell (HUVEC); assay: Proliferation inhibition of human umbilical vein endothelial cells (SRB); format: cell-based; details: 48 hours

SMILES | antitumor activity, times stronger than CA4, CB1 and CB1N [2] | also measured
CCOc1cc2c(cc1O)CC[C@@H]1[C@@H]2CC[C@]2(C)[C@@H](O)CC[C@@H]12 [2-ethoxyestradiol] |  | in vitro anticancer activity, times as much as 2-methoxyestradiol [1]: 1000 times
CCOc1ccc(CCc2cc(OC)c(OC)c(OC)c2)cc1O [ECB1, 3,4,5-trimethoxy-3′-hydroxy-4′-ethoxydiphenylethane] | 10 to 200 times | 
COc1ccc(CCc2cc(OC)c(OC)c(OC)c2)cc1O [CB1, 3,4,5-trimethoxy-3′-hydroxy-4′-methoxydiphenylethane] |  | IC50 [3]: 4.8 to 7.7 nM
CCOc1ccc(CCc2cc(OC)c(OC)c(OC)c2)cc1N [ECB1N, 3,4,5-trimethoxy-3′-amino-4′-ethoxydiphenylethane] | 10 to 200 times | 
